Paper doi:10.1101/2020.08.18.255471
These are yes or no findings as the source states them, for the method shown. Binding seen in cells or lysates may run through a third protein. Some results given as binding are weak or reduced against the parent protein; the word gives no strength.

How the values were obtained:
[1] = molecular target: T1, LMO2, mouse (mouse (endogenous in ES cell-derived Flk-1+ cells and PUER cells)) (UniProt P25801); test: co-IP
T1 sequence: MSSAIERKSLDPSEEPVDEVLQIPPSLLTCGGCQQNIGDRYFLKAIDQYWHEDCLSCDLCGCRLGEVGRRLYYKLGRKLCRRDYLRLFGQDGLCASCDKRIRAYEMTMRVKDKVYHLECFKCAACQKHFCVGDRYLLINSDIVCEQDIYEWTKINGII

[2] = molecular target: T1, LMO2, mouse (mouse (endogenous in ES cell-derived Flk-1+ cells and PUER cells)); test: proximity ligation

- binding [1]: binds
- binding [2]: binds
B1: PHF6, mouse (protein, UniProt Q9D4J7 1-364)
chain: MSSSIEQKKGSTRQRKCGFCKSNRDKECGQLLISENQKVAAHHKCMLFSSALVSSHSDNESLGGFSIEDVQKEIKRGTKLMCSLCHCPGATIGCDVKTCHRTYHYHCALHDKAQIREKPSQGIYMVYCRKHKKTAHNSEADLEESFNEHELEPSSPKTKKKSRKGRPRKTNLKGLPEDSRSTSSHGTDEMESSSYRDRSPHRSSPNDTRPKCGFCHVGEEENEARGKLHIFNAKKAAAHYKCMLFSSGTVQLTTTSRAEFGDFDIKTVLQEIKRGKRMKCTLCSQPGATIGCEIKACVKTYHYHCGVQDKAKYIENMSRGIYKLYCKNHSGNDERDEEDEERESKSRGRVAIDQQLTQQQLNGN
